# The shares of active, inactive and inconclusive entries below differ from those in the screen. Calls follow the shape of the dose curve; as a rule, active = well fitted inhibition curve with a large enough effect; inconclusive = small, poorly fitted or top-dose-only effect; inactive = flat fitted curve, though single readings scatter. Where the call is inconclusive, the potency comes from a doubtful curve fit.
# By UniProt entry, the sequences of proteins in these tests, tags left out. Where a name states a change or a piece, a line headed by the entry shows the natural chain unless it says otherwise.
# UniProt Q9HAZ1: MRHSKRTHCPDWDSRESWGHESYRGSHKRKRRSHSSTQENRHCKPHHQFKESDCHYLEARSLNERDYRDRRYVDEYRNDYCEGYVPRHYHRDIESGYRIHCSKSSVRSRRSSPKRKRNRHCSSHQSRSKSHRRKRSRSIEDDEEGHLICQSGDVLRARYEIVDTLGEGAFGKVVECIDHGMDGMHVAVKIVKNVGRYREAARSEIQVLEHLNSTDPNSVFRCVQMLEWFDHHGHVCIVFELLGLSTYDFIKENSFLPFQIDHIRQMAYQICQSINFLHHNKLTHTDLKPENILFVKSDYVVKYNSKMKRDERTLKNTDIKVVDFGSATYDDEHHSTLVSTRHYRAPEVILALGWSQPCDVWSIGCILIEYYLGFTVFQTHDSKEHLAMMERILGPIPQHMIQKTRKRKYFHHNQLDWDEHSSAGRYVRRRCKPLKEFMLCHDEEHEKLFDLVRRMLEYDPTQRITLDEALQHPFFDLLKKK
# Target: Dual specificity protein kinase CLK4 (Homo sapiens) (UniProt Q9HAZ1)
# Experiment: Confirmation Assay for Inhibitors of Clk4 (Kinase-Glo Assay): KU probe
# Settings: recombinant Clk4, Kinase-Glo ATP luminescence
# Method: NIH Molecular Libraries Probe Production Centers Network [MLPCN] NIH Chemical Genomics Center [NCGC] MLPCN Grant: 1R03MH084827-01 Assay Submitter (PI): Tom Misteli NCGC Assay Overview: Clk4 (Invitrogen, cat# PV3839) was assayed using ATP and the RS repeat peptide (AnaSpec cat # 61722) as substrates. Following the Clk4 reaction, the remaining ATP levels were detected using Promega Kinase-Glo technology wherein the remaining ATP from the kinase reaction is detected using Ultra-Glo luciferase and D-luciferin which generates a bioluminescence signal from the ATP.
# NCGC Assay Protocol Summary: Two uL/well of substrate-buffer solution (100 uM RS peptide, 1 uM ATP, 25 mM Tris pH7.5, 10 mM MgCl2, 0.5 mM EGTA, 2.5 mM DTT, 0.01% Triton X-100 final concentration) was dispensed into 1536-well, assay plates (Greiner, solid white medium-binding plates) with Aurora Discovery BioRAPTR Flying Reagent Dispenser (FRD; Beckton-Dickenson). Using a Kalypsys pin tool equipped with a 1536-pin tool, 23 nL of compound solution was transferred to the assay plate. […] Luminescence was detected with the ViewLux plate reader (Perkin Elmer, Waltham, MA) after 5 min incubation using a 5 second exposure time and 2x binning.
smiles,measurement,value
Cc1ccc(CNc2ccnc(-c3ccc4c(c3)OCO4)n2)cn1,Potency,"inconclusive: 18.4 µM [inhibitor, partial curve]"
